The results in this text go back to PMC11448500.

Amino acid sequences for entries named in this document (tags omitted).
UniProt Q61501: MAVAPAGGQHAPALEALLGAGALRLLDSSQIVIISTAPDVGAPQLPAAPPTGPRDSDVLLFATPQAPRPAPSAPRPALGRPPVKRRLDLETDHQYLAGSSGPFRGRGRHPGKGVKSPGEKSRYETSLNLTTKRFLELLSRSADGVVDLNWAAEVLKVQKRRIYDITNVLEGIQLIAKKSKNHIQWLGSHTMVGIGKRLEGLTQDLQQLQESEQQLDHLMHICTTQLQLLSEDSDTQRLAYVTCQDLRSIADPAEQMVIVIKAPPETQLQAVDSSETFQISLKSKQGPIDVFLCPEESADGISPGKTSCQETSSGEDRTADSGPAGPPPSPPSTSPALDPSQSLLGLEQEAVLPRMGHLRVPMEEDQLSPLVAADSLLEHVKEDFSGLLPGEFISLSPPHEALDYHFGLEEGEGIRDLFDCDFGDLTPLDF

Results are given in words; binding and its absence hold for the method and conditions named. In cells and extracts the contact can be indirect. These calls come from enrichment with a bait or labelling near it, and not all partners need be listed.

The target of the assay is T1, KDM2A (mouse (endogenous in c-KIT+ spermatogonia of mouse testes)) (UniProt P59997).
T1 sequence: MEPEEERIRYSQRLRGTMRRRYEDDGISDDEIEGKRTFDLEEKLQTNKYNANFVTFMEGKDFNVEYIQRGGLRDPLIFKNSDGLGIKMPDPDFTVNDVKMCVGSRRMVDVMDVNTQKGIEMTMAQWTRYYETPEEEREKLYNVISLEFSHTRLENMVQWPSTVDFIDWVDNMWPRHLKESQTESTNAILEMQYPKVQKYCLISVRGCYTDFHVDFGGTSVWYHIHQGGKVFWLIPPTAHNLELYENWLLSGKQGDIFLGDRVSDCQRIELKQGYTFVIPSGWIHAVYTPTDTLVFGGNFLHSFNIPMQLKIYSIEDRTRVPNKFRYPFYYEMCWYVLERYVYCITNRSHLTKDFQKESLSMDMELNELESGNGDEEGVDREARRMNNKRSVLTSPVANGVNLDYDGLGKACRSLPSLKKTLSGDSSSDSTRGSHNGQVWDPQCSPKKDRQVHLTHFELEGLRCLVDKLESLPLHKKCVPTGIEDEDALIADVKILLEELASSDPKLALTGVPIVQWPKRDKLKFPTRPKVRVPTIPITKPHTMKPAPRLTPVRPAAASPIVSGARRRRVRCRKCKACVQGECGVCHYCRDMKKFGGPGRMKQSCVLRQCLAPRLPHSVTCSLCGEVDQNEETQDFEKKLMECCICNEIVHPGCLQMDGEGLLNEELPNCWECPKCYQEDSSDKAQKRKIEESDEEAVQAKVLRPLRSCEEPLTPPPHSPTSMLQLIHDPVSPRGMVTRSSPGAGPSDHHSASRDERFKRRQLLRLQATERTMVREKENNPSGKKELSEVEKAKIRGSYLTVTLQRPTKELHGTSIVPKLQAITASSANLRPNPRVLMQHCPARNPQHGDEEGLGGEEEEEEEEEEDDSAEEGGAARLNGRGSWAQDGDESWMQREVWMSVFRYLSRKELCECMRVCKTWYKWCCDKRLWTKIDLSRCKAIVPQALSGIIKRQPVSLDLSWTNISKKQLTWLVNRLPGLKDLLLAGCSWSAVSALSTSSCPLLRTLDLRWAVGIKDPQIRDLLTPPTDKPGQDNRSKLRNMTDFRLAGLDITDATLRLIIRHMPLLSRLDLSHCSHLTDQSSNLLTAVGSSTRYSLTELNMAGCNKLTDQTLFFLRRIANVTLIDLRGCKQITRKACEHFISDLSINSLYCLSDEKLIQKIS
The experiment in a line: affinity purification with mass spectrometry; IP with the KDM2A antibody from lysate of purified c-KIT+ germ cells, protein A/G magnetic beads, elution at 70 °C, LTQ Orbitrap Velos.

As for E2F1 (from UniProt Q61501 1-430), the binding entry is “binds”.

For HCFC1, the binding result is recorded as “binds”.
